Results are given in words; binding and its absence hold for the method and conditions named. A result given as binding can be weak or reduced; the word gives no strength.
Target: NF-YC (in vitro translated) (human) (UniProt Q13952)
Assay: native gel or EMSA; in vitro translated NF-YAl, NF-YAs or NF-YAx combined with in vitro translated NF-YB and NF-YC; 32P-labelled double-stranded inverted CCAAT-box oligonucleotide, room temperature, 20 min; read-out is the DNA-bound NF-Y complex; also titrations of NF-YAx against constant NF-YAl and vice versa (0-4 μl)

Amino acid sequences for entries named in this document (tags omitted). A change or cut given only in a name is not applied to a line headed by its entry.
UniProt Q13952: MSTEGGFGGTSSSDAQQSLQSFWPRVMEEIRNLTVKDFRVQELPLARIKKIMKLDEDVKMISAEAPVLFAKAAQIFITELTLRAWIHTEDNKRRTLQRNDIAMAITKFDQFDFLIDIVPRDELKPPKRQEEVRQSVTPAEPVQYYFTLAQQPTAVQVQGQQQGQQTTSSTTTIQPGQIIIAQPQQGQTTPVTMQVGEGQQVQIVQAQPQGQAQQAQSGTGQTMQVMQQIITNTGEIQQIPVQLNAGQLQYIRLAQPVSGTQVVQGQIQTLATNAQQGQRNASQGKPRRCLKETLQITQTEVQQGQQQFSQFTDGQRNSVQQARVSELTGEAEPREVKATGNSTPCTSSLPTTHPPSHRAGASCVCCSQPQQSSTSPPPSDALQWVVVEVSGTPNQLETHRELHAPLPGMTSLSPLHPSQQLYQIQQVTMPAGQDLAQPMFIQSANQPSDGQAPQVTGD

Q: With “NF-YAl, fully-spliced long-form nuclear transcription factor YA (in vitro translated) (from UniProt P23511-1 1-347)” as the substance, how does the binding read?
A: Its binding is “binds”.

From article PMC6896337
